Test results reported in PMC7605671.
No constants are given. Whether binding was seen depends on the method and setting. In cells and extracts the contact can be indirect. Some results given as binding are weak or reduced against the parent protein; the word gives no strength. For part of these data: Where a sequence is shown, tags or fusion partners need not be part of it.

The chains behind the UniProt entries cited, without tags or fusion partners.
UniProt Q02248: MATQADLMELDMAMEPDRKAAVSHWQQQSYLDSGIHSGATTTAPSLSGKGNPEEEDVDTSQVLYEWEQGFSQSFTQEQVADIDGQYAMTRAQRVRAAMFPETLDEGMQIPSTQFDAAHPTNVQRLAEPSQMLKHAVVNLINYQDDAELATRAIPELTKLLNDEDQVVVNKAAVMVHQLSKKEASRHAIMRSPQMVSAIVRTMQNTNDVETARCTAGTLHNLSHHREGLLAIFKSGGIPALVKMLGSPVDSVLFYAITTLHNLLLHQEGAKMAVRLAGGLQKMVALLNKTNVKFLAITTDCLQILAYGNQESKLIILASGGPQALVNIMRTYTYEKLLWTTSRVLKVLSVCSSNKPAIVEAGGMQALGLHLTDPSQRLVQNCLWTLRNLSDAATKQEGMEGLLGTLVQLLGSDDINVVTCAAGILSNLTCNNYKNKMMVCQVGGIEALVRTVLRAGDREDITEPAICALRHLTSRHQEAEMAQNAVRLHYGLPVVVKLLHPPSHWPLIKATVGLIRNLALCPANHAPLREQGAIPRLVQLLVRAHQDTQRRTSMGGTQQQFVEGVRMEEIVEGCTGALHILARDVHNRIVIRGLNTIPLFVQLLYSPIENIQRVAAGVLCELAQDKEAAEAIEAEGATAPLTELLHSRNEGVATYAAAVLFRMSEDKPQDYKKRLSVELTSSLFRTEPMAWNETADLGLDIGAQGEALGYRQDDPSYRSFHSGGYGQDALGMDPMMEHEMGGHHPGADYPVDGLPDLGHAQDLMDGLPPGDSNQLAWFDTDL

T1: Interferon regulatory factor-1 (IRF1), endogenous in mouse liver after warm IR (mouse (endogenous in liver tissue)) (UniProt P15314)
T1 sequence: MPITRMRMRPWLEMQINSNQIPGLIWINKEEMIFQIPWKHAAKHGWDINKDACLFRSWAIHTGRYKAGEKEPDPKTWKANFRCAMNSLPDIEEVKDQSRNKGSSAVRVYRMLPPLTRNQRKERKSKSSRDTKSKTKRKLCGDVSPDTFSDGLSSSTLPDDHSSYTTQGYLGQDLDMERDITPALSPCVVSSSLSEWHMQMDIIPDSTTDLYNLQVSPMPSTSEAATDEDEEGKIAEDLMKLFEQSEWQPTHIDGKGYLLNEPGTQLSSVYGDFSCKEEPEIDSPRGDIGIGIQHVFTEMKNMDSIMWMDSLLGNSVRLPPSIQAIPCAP

T2: Interferon regulatory factor-1 (IRF1), overexpressed from adenoviral IRF-1 (AdIRF-1) (mouse (Ad-mIRF1)) (UniProt P15314)
T2 sequence: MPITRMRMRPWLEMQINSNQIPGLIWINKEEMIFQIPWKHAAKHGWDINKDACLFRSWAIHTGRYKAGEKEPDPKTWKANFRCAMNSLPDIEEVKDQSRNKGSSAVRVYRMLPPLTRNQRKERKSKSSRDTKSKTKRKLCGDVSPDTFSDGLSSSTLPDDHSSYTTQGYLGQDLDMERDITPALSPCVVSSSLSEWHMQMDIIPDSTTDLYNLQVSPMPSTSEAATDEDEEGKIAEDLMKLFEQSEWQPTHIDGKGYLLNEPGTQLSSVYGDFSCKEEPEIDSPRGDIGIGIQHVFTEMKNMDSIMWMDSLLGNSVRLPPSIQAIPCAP


Assays:
[1] = biological target: T1, Interferon regulatory factor-1 (IRF1), endogenous in mouse liver after warm IR (mouse (endogenous in liver tissue)); assay: co-IP; mouse liver tissue 6 hrs after warm IR; anti-IRF1 antibody pull-down, Western blot for β-catenin
[2] = biological target: T2, Interferon regulatory factor-1 (IRF1), overexpressed from adenoviral IRF-1 (AdIRF-1) (mouse (Ad-mIRF1)); assay: co-IP; primary mouse hepatocytes infected with IRF1-adenovirus for 48 h; lysate incubated with anti-IRF1 or anti-β-catenin antibody on Protein A/G agarose overnight at 4°C; Western blot for the other protein; control IgG
[3] = biological target: β-catenin (mouse (endogenous in primary hepatocytes and liver tissue)) (UniProt Q02248); assay: as above

Molecule	binding [1]	binding [2]	binding [3]
β-catenin (from UniProt Q02248 1-781)	binds	binds	
Interferon regulatory factor-1 (IRF1), overexpressed from adenoviral IRF-1 (AdIRF-1) (protein, UniProt P15314 1-329) MPITRMRMRPWLEMQINSNQIPGLIWINKEEMIFQIPWKHAAKHGWDINKDACLFRSWAIHTGRYKAGEKEPDPKTWKANFRCAMNSLPDIEEVKDQSRNKGSSAVRVYRMLPPLTRNQRKERKSKSSRDTKSKTKRKLCGDVSPDTFSDGLSSSTLPDDHSSYTTQGYLGQDLDMERDITPALSPCVVSSSLSEWHMQMDIIPDSTTDLYNLQVSPMPSTSEAATDEDEEGKIAEDLMKLFEQSEWQPTHIDGKGYLLNEPGTQLSSVYGDFSCKEEPEIDSPRGDIGIGIQHVFTEMKNMDSIMWMDSLLGNSVRLPPSIQAIPCAP			binds
